Assay results: PubChem BioAssay (NCATS)
This list holds what a sample rich in hits left over. Results filed as inconclusive are left out. Calls of active or inactive are those of the source. Calls come from the whole dose curve; as a rule, active = well fitted cell-killing curve with a large enough effect; inconclusive = small, poorly fitted or top-dose-only effect; inactive = flat fitted curve, though single readings scatter.

experiment: Quantitative highthroughput screen to assess conditional lethalithy of P12 Ichikawa cells grown in Human Plasma-Like Medium with dialyzed fetal bovine serum (HPLM+ds) (AID 1963879); details: ATP luminescence, 48 h; at 45.8 µM (top of the series)
Source text: (§1) Assay Provider: Jason Cantor Ph.D.
(§2) Department of Biochemistry
(§3) University of Wisconsin-Madison, Madison, WI, USA
(§4) Chemical screening studies have identified drug sensitivities across hundreds of cancer cell lines but most putative therapeutics fail to translate. Discovery and development of drug candidates in models that more accurately reflect nutrient levels in human blood is a major challenge. Here we performed high-throughput screens in conventional versus Human Plasma-Like Medium (HPLM) to identify compounds that were "missed" when screening using the artificial culture condition. Sets of conditional anticancer compounds spanned phases of clinical development and included non-oncology drugs were assessed. […] We also traced conditional phenotypes for several chemotherapeutics to availability of HPLM-specific metabolites and confirmed others for compounds whose reported targets are encoded by nonessential genes. Our findings establish generalizable strategies for exploiting conditional lethality in HPLM to reveal therapeutic candidates and mechanisms of action in cancer cells.
(§5) Described herein are the results of each viability screens against three cell lines: NOMO1 (an acute myeloid leukemia cell line); P12-Ichikawa (a T-cell acute lymphoblastic leukemia); and SEM (a B-cell ALL). Each assay was screened using 3 different cell culture media: homemade human plasma-Like medium with 10% dialyzed fetal bovine serum (HPLM+ds); RPMI1640 with 10% untreated FBS and 5mM glucose (RPMI+s); and RPMI1640 with 10% dialyzed fetal bovine serum and 5 mM glucose (RPMI+ds).
(§6) PROTOCOL TABLE (as described by Inglese J, Shamu CE and Guy RK. 2007)
(§7) SEQUENCE No. (e.g., 1, 2, 3, etc.); […] (e.g., Cells, Incubation, Reagent, etc.); VALUE and DESCRIPTION.
(§8) 1; Cells; 5 uL; white, solid bottom 1536-well Greiner assay plate.
(§9) 2; Compounds; 23 nL; Kalypsis pin tool (Wako USA) equipped with a 1536-well pin head to transfer to the assay plates.
(§10) 3; Incubation; 48 hours; 37C incubation.
(§11) 4; Reagent; 3 uL; CellTiter Glo (Promega).
(§12) 5; Incubation; 5 min, room temperature
(§13) 6; Detection; Luminescence, Viewlux PerkinElmer.
(§14) NOTES (numbers refer to Sequence numbers above)
(§15) 1. Briefly, 5 ul of cell reagent was dispensed using a Multidrop Combi Dispenser. The NOMO1 and SEM cells were plated at 500 cells/well and the P12-Ichikawa line at 1000 cells/well.
(§16) 2. After seeding the cells, 23 nL of MIPE 4.1 library compounds (in DMSO) were added to each plate using a Kalypsys 1536 Pintool dispenser. Bortezomib at final concentration of […] and DMSO were added to each plate as positive and negative controls respectively. For each screen, MIPE 4.1 compounds were added over an eleven-point concentration range […] in 3-fold dilutions.
(§17) 3. Each plate was covered with a stainless steel gasketed lid to prevent evaporation and incubated for 48 hour at 37C, 95% relative humidity, and 5% CO2.
(§18) 4-5. Three microliter CellTilter-GloTM luminescent substrate mix (Promega) reagent was added to the assay plate and incubated at room temperature for 5 min.
(§19) 6. The luminescence signal was measured using a ViewLux (PerkinElmer) multiplate reader with a 2 second exposure time per plate. Data for each compound were normalized as percent viability such that measurements for DMSO and the empty well controls in each plate were defined as 100% and 0%, respectively.
Note: nearly all actives have a fitted effect of over 35% in size.

Q: Which viability does the source give for `CCC[C@H]1C[C@H](C(=O)N[C@@H]([C@@H]2O[C@@H](SC)[C@@H](O)[C@@H](O)[C@@H]2O)[C@H](C)Cl)N(C)C1` here?
A: Its viability is inactive: 104%.

Q: With `O=C(c1ccc(F)cc1)N1CCC[C@H](c2nc(-c3ccc(F)cc3)no2)C1` as the molecule, how does the viability read?
A: The viability was inactive: 95.8%.

Q: With `Nc1ccc(C(=O)Nc2cccc(-c3nc(N4CCOCC4)c4oc5ncccc5c4n3)c2)cn1` as the molecule, how does the viability read?
A: The viability was inactive: 89.2%.

Q: Which viability does the source give for `Nc1nc2ccc(OC(F)(F)F)cc2s1` here?
A: Its viability is inactive: 89%.

Q: With `C[C@@H](O)[C@H]1C(=O)N2C(C(=O)OCOC(=O)C(C)(C)C)=C(SC3CN(C4=NCCS4)C3)[C@H](C)[C@H]12` as the molecule, how does the viability read?
A: Its viability is inactive: 95.1%.

experiment: Quantitative highthroughput screen to assess conditional lethalithy of P12 Ichikawa cells grown in RPMI1640 with dialyzed fetal bovine serum (RPMI+ds) (AID 1963880); details: ATP luminescence, 48 h; at 45.8 µM (top of the series)
Source text: as §1, §2, §3, §4, §5, §6, §7, §8, §9, §10, §11, §12, §13, §14, §15, §16, §17, §18, §19

Q: With `CCC[C@H]1C[C@H](C(=O)N[C@@H]([C@@H]2O[C@@H](SC)[C@@H](O)[C@@H](O)[C@@H]2O)[C@H](C)Cl)N(C)C1` as the molecule, how does the viability read?
A: Its viability is inactive: 99.5%.

Q: With `O=C(c1ccc(F)cc1)N1CCC[C@H](c2nc(-c3ccc(F)cc3)no2)C1` as the molecule, how does the viability read?
A: Its viability is inactive: 102%.

Q: With `Nc1ccc(C(=O)Nc2cccc(-c3nc(N4CCOCC4)c4oc5ncccc5c4n3)c2)cn1` as the molecule, how does the viability read?
A: Its viability is inactive: 96%.

Q: With `Nc1nc2ccc(OC(F)(F)F)cc2s1` as the molecule, how does the viability read?
A: Its viability is inactive: 92.2%.

Q: For `C[C@@H](O)[C@H]1C(=O)N2C(C(=O)OCOC(=O)C(C)(C)C)=C(SC3CN(C4=NCCS4)C3)[C@H](C)[C@H]12`, which viability is on record?
A: Its viability is inactive: 100%.

experiment: Quantitative highthroughput screen to assess conditional lethalithy of P12 Ichikawa cells grown in RPMI1640 with untreated serum (RPMI+s) (AID 1963881); details: ATP luminescence, 48 h; at 45.8 µM (top of the series);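 note: 100% = DMSO wells and 0% = empty wells without cells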
Summary of the method: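 Each medium arm—HPLM with 10% dialyzed FBS, or RPMI1640 with 5 mM glucose and 10% untreated or dialyzed FBS—was screened against an 11-point, 3-fold compound titration for 48 h at 37 °C, with CellTiter-Glo luminescence as endpoint.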

Q: Which viability does the source give for `CCC[C@H]1C[C@H](C(=O)N[C@@H]([C@@H]2O[C@@H](SC)[C@@H](O)[C@@H](O)[C@@H]2O)[C@H](C)Cl)N(C)C1` here?
A: The viability was inactive: 108%.

Q: Which viability does the source give for `O=C(c1ccc(F)cc1)N1CCC[C@H](c2nc(-c3ccc(F)cc3)no2)C1` here?
A: Its viability is inactive: 103%.

Q: Which viability does the source give for `Nc1ccc(C(=O)Nc2cccc(-c3nc(N4CCOCC4)c4oc5ncccc5c4n3)c2)cn1` here?
A: The viability was inactive: 75.6%.

Q: Which viability does the source give for `Nc1nc2ccc(OC(F)(F)F)cc2s1` here?
A: The viability was inactive: 95%.

Q: For `C[C@@H](O)[C@H]1C(=O)N2C(C(=O)OCOC(=O)C(C)(C)C)=C(SC3CN(C4=NCCS4)C3)[C@H](C)[C@H]12`, which viability is on record?
A: Its viability is inactive: 92.5%.
